Among the data in paper doi:10.1101/050617 are binding values, retold here.

The chains behind the UniProt entries cited, without tags or fusion partners. Where a name states a change or a piece, a line headed by the entry shows the natural chain unless it says otherwise.
UniProt P00842: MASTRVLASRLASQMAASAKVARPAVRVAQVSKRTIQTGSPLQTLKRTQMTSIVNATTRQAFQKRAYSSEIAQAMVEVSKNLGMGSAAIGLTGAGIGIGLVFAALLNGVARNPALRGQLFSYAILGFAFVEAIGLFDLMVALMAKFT

No constants are given. Whether binding was seen depends on the method and setting. For part of these data: In cells and extracts the contact can be indirect. Some results given as binding are weak or reduced against the parent protein; the word gives no strength.

For assay [1], the target named is Su9(86)-DHFR (Neurospora crassa | mouse) (UniProt P00842). Description: filter retardation assay.
For assay [2] the target is unchanged. Description: co-sedimentation.
For assay [3], the target named is ornithine carbamoyltransferase (OTC) precursor protein (UniProt P00480). Description: filter retardation assay.

Regarding “Su9(86)-DHFR (from UniProt P00842 1-86; P00375 1-187)”, the binding result in assay [1] was “binds weakly”; in assay [2], “binds”.

B1: ornithine carbamoyltransferase (OTC) precursor protein (protein, UniProt P00480 1-354)
chain: MLFNLRILLNNAAFRNGHNFMVRNFRCGQPLQNKVQLKGRDLLTLKNFTGEEIKYMLWLSADLKFRIKQKGEYLPLLQGKSLGMIFEKRSTRTRLSTETGFALLGGHPCFLTTQDIHLGVNESLTDTARVLSSMADAVLARVYKQSDLDTLAKEASIPIINGLSDLYHPIQILADYLTLQEHYSSLKGLTLSWIGDGNNILHSIMMSAAKFGMHLQAATPKGYEPDASVTKLAEQYAKENGTKLLLTNDPLEAAHGGNVLITDTWISMGQEEEKKKRLQAFQGYQVTMKTAKVAASDWTFLHCLPRKPEEVDDEVFYSPRSLVFPEAENRKWTIMAVMVSLLTDYSPQLQKPKF
modifications: [35S]-methionine/cysteine label
Consider B1, for which the binding entry in assay [3] was “binds weakly”.
